From publication PMC3023790
For at least one entry, the source does not settle the construct or the ends of the probe. Negatives hold for the conditions tested. For some of these results: Where a protein sequence is shown, tags need not be part of it.

Chains of the proteins cited; added tags and fusions are not shown. Lines headed by an entry give the natural chain unless they say otherwise; changes in a name come on top.
UniProt Q9C5T4: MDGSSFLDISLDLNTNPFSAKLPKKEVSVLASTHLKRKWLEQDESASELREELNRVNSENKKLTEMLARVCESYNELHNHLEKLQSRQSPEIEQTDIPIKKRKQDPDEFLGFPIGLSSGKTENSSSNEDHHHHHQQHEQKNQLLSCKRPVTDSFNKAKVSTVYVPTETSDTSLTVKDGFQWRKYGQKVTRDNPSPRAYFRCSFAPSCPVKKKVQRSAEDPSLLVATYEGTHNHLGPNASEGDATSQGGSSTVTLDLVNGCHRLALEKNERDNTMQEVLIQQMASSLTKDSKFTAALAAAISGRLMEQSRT

Columns and labels:
[1] = biological target: WRKY18 (UniProt Q9C5T4); assay: EMSA; details: 200 fmol protein, 20 fmol probe, Pierce LightShift Chemiluminescent EMSA kit per manual, 200 fmol recombinant protein, 20 fmol biotin-labeled probe, pH and temperature not stated, label: 5' biotin
[2] = biological target: T1, WRKY40 (UniProt Q9SAH7); assay: EMSA; details: 200 fmol protein, 20 fmol probe, Pierce LightShift Chemiluminescent EMSA kit per manual, 200 fmol recombinant protein, 20 fmol biotin-labeled probe, pH and temperature not stated, label: 5' biotin
T1 sequence (looked up, limits assumed): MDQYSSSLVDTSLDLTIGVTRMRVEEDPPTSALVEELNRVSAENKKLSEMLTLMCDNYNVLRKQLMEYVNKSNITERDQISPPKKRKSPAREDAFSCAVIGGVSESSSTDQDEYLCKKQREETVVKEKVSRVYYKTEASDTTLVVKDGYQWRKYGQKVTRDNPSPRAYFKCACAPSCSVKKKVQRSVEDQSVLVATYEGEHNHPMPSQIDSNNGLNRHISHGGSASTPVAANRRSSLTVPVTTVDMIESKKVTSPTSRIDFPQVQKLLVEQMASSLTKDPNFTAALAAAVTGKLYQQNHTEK

| Sequence | binding result [1] | binding result [2] |
| --- | --- | --- |
| GCTTGAATTGAACCATTGAATATG (double strand) [mPW60] | no binding | no binding |
| GCTTGACTTGACCCATTGACTATG (double strand) [PW60] | binds | binds |
